Residue numbers refer to the chain shown, from its start. No constants are given. Whether binding was seen depends on the method and setting. Binding seen in cells or lysates may run through a third protein. Some binding calls cover weakened binding; strength is not graded here. Sequences can lack the tags named with a protein.
Assays:
Test in all cases: FRET or BRET; intermolecular FlAsH-BRET saturation in HEK293 cells: fixed amount of WHRN-Nluc, increasing ADGRV1-FlAsH or USH2A-FlAsH; 2.5 µM FlAsH-EDT2, 5 µM coelenterazine-h; net BRET Em530/Em485
[1] = target: T1, WHRN-Nluc (L-Z2) K345A (mouse) (UniProt Q80VW5)
T1 sequence: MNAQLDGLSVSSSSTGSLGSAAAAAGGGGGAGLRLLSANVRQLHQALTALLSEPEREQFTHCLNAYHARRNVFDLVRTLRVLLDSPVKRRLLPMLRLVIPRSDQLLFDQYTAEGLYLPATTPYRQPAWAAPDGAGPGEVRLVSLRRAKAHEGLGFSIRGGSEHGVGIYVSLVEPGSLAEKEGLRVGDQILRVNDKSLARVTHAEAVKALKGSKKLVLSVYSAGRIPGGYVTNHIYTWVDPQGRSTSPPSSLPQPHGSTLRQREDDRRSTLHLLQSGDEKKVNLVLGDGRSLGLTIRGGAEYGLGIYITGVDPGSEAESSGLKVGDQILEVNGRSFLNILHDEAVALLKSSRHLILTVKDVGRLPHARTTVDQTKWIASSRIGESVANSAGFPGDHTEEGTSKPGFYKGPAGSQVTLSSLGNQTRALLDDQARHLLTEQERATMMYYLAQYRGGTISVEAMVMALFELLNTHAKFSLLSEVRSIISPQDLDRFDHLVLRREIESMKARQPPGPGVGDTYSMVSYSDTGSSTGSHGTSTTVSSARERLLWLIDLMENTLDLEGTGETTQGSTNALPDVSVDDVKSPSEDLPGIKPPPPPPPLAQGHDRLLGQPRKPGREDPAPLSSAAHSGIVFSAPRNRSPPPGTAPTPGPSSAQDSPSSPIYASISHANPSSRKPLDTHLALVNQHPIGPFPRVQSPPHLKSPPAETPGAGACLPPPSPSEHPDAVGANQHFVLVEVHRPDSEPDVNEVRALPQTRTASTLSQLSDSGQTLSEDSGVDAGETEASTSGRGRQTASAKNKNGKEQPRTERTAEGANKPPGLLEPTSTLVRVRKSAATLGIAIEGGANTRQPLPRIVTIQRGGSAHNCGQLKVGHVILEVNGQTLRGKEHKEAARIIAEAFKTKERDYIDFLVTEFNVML

The chains behind the UniProt entries cited, without tags or fusion partners. Residues count along the entry.
UniProt Q8VHN7, residues 4333-6298: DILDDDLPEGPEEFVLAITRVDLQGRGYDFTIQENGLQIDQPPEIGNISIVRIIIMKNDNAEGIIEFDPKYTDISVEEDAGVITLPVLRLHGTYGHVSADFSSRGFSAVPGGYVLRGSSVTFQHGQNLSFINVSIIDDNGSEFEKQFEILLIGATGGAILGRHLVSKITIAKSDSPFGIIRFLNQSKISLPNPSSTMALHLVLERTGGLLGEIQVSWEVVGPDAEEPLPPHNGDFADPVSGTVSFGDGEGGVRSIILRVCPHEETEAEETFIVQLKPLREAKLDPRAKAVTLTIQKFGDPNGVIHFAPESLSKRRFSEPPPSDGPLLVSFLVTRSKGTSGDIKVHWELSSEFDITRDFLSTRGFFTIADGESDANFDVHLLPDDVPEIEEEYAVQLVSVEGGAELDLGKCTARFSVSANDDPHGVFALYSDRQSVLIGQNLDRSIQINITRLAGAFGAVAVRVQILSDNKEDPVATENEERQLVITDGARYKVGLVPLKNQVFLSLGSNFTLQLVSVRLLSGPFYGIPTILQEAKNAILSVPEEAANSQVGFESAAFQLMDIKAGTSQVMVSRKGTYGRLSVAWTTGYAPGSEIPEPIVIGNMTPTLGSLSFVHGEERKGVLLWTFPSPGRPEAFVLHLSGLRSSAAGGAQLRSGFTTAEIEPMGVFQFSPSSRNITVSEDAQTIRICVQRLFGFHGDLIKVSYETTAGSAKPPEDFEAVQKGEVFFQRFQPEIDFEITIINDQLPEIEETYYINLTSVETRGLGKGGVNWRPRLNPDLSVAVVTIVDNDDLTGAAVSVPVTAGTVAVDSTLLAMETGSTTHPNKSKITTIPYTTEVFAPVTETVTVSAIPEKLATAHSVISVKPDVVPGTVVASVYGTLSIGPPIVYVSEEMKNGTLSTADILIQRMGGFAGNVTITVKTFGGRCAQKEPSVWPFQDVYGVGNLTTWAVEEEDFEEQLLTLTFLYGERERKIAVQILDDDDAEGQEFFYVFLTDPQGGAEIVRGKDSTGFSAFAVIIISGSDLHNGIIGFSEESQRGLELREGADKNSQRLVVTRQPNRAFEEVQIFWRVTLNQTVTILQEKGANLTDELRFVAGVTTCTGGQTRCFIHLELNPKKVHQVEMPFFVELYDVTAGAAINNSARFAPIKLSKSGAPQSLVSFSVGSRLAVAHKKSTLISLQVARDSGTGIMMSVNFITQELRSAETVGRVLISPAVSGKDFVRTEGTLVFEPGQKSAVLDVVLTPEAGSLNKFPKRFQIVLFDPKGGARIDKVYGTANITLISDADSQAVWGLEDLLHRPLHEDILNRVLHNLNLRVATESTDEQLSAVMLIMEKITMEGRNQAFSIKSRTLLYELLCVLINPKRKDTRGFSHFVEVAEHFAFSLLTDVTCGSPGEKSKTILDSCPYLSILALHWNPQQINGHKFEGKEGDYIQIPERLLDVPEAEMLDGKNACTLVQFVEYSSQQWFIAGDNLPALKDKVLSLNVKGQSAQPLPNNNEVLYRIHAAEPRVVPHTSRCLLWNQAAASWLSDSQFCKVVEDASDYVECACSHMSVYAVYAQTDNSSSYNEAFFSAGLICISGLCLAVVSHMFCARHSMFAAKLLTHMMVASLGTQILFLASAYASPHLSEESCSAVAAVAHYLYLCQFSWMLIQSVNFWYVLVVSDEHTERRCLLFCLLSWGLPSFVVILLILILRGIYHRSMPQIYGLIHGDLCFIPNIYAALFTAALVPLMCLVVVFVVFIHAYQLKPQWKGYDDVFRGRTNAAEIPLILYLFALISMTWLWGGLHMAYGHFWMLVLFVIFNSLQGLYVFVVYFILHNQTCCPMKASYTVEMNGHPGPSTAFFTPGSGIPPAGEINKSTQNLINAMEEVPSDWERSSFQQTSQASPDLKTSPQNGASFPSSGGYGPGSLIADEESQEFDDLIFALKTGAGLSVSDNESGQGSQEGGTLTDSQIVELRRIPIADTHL

[2] = target: T2, WHRN-Nluc (L-Z2) S290A (mouse) (UniProt Q80VW5)
T2 sequence: T1 sequence with S290A, A345K

[3] = target: T3, WHRN-Nluc (L-Z2) Y301A (mouse) (UniProt Q80VW5)
T3 sequence: T1 sequence with Y301A, A345K

Measured: binding

ADGRV1-ICL3-FlAsH (from UniProt Q8VHN7 4333-6298) (receptor)
binds: all assays above
